Source: PubChem BioAssay AID493014 (National Center for Advancing Translational Sciences (NCATS), 2011)
Among all 340,000 compounds or so, about 170 (0.05%) were called active. The shares of active, inactive and inconclusive entries below differ from those in the screen. Calls come from the whole dose curve; as a rule, active = well fitted inhibition curve with a large enough effect in the signal ratio, with a control signal flat (not every such curve was filed as active); inconclusive = small, poorly fitted or top-dose-only effect, or effect the other way, or a change in a side signal; inactive = flat fitted curve, though single readings scatter; the % refers to the signal ratio. Where the call is inconclusive, the potency comes from a doubtful curve fit.

Experiment: qHTS Assay to Find Inhibitors of Chronic Active B-Cell Receptor Signaling;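 for activity change, negative = inhibition: plate controls were basal doxycycline-induced cells for no effect and cells given 10 µM MG132 for full effect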
Conditions: ABC-DLBCL IkBa-CBG/CBR reporter, luminescence ratio (green luciferase fused to IkBa over red control in TMD8 lymphoma cells), 4 h; activity change, negative = inhibition: at 46.1 µM (top of the series)
Outline: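 TMD8 ABC-DLBCL cells carrying doxycycline-inducible green luciferase fused to IkappaBalpha plus unfused red luciferase were exposed to compounds (up to 46 uM) for 4 hrs at 37C. Activity came from the overlap-corrected green/red luminescence ratio.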
Potency is the fitted concentration of half-maximal effect.

Row | SMILES | activity change, negative = inhibition | Potency
1 | Cc1cccc2sc(N(Cc3cccnc3)C(=O)CCS(=O)(=O)c3ccccc3)nc12 | inconclusive: -1.9% | –
2 | S=C(NCc1ccc2c(c1)OCO2)Nc1ccc(-c2nc3ccccc3[nH]2)cc1 | inconclusive: 5.21% | –
3 | CN(CCNC(=O)c1ccc(/C=N/O)nc1)Cc1ccccc1 | inactive | –
4 | Cc1ccnc(NC(=O)CN2C(=O)c3ccccc3C2=O)c1 | – | inconclusive: 35.5 µM [falling, single point]
5 | O=C(NCCN1CCOCC1)C1CCN(c2ncnc3c2sc2cccc(F)c23)CC1 | inactive | –
6 | COc1cccc(NC(=O)c2oc3ccccc3c2NC(C)=O)c1 | – | inconclusive: 20 µM [falling, partial curve, poor fit]
7 | Cc1ccc(-c2nnc(-c3ccccc3)c(N3CCOCC3)n2)cc1 | – | inconclusive: 22.4 µM [falling, single point]
8 | CCOC(=O)C(C)Oc1cccc2c(=O)n(CC(=O)N3CCCc4ccccc43)ccc12 (stereo not given) | inactive | –
9 | Cc1ccc(N(C)S(=O)(=O)c2c(C)noc2/C=C/N(C)C)cc1 | inactive | –
10 | CSc1ccc(/C=N/NC(=O)c2cccc(Cl)c2)cc1 | – | inconclusive: 16.4 µM [falling, partial curve]
11 | Cc1ccccc1-c1nc(CS(=O)CC(=O)NCCCN(C)c2ccccc2)c(C)o1 (stereo not given) | – | inconclusive: 31.6 µM [falling, partial curve, poor fit]
12 | Cc1cc(OCC[N+]2(C)CCCCC2)nc2ccccc12 | inconclusive: -20% | –
13 | Cc1ccc(C(=O)Nc2ccc(C(=O)N/N=C/c3ccc(C)o3)cc2)cc1 | inconclusive: -29.2% | –
14 | O=C(NCCCN1CCOCC1)c1cc2ccccc2cc1O | inactive | –
15 | COc1ccccc1NC(=O)CSc1nn2c(=O)c(C)nnc2s1 | inconclusive: 12.5% | –
16 | CCOc1cc(N2CCOCC2)c(OCC)cc1NC(=O)c1ccc(F)c(S(=O)(=O)N2CCOCC2)c1 | inactive | –
17 | CCC(=O)N1CCN(c2ccc(NC(=O)c3ccc(-c4ccccc4)cc3)cc2)CC1 | – | inconclusive: 16.4 µM [falling, partial curve, poor fit]
18 | COc1cccc(-c2cc(C(=O)N3CCCCCC3)no2)c1 | – | inconclusive: 29.1 µM [falling, single point]
19 | CNc1ncc(C(=O)c2ccc(-c3ccccc3)cc2)s1 | inconclusive: -5.51% | –
20 | CC(=O)Nc1ccc(S(=O)(=O)N2CCN(S(=O)(=O)N3CCCCC3)CC2)cc1 | inconclusive: 0.323% | –
21 | Cc1ccc(N2C(=O)CC(N3CCN(c4ccccn4)CC3)C2=O)cc1 (stereo not given) | inactive | –
22 | CC(C)CSC1=NSC2=NC(=O)/C(=C\c3ccccc3)C(=N)N12 | – | inconclusive: 35.5 µM [falling, single point]

One compound at a time, from the list above. Values in the order: activity change, negative = inhibition | Potency
Cc1ccccc1-c1nc(CS(=O)CC(=O)NCCCN(C)c2ccccc2)c(C)o1 (stereo not given) as listed: – | inconclusive: 31.6 µM [falling, partial curve, poor fit]
COc1ccccc1NC(=O)CSc1nn2c(=O)c(C)nnc2s1 as listed: inconclusive: 12.5% | –
Cc1cccc2sc(N(Cc3cccnc3)C(=O)CCS(=O)(=O)c3ccccc3)nc12 as listed: inconclusive: -1.9% | –
CSc1ccc(/C=N/NC(=O)c2cccc(Cl)c2)cc1 as listed: – | inconclusive: 16.4 µM [falling, partial curve]

The list goes on:

Row | SMILES | activity change, negative = inhibition | Potency
23 | CC(C)SC1=NC(C)(C)C=C(/C=C/c2c(Cl)cccc2Cl)N1 | – | inconclusive: 23.1 µM [falling, partial curve, poor fit]
24 | S=C(NCc1ccc2c(c1)OCO2)Nc1ccc2nsnc2c1 | inactive | –
25 | c1ccc(Cn2cc(CN3CCCO3)c(-c3ccc4c(c3)OCO4)n2)cc1 | inconclusive: 6.42% | –
26 | c1ccc2c(c1)ncc1cccn12 | inactive | –
27 | CCN1C(=O)[C@H]2[C@@H](c3ccc(-c4ccc5c(c4)OCO5)c(OC)c3)N[C@@](C)(C(=O)OC)[C@H]2C1=O | inactive | –
28 | COC(=O)c1cccc(NC(=O)c2cc3sccc3n2C)c1 | inconclusive: -0.602% | –
29 | Cc1ccc(NC(=O)c2ccc3c(c2)NC(=O)CS3)nc1 | inconclusive: -2.8% | –
30 | O=C(COC(=O)[C@@H]1CCCN1C(=O)c1cccs1)NCCc1ccccc1 | inconclusive: 2.64% | –
31 | O=C(Nc1ccccc1N1CCCCC1)c1cccc(F)c1 | inconclusive: 2.29% | –
32 | CCCc1[nH]n(-c2ccc([N+](=O)[O-])cc2)c(=O)c1C=NCCN1CCNCC1 | inconclusive: 10.2% | –
33 | CCOC(=O)C(C)Oc1cccc2c(=O)n(CC(=O)NCc3ccc4c(c3)OCO4)ccc12 (stereo not given) | – | inconclusive: 2.82 µM [falling, full curve]
34 | O=C(NCc1ccc(N2CCCC2=O)cc1)c1cn(CCc2ccccc2)nn1 | inconclusive: -4.39% | –
35 | CSc1ccccc1C(=O)Nc1ncn[nH]1 | inactive | –
36 | COc1ccc2c(c1)c(=O)oc1cc(OCC(=O)NC3CC3)ccc12 | inconclusive: -1.25% | –
37 | Oc1cccc(/C=N/N(Cc2ccccc2)c2ccccc2)c1 | inconclusive: 5.38% | –
38 | O=C(O)CSc1ccc2ccccc2n1 | – | inconclusive: 0.58 µM [rising, partial curve, poor fit]
39 | CC(C)SC1=NC(C)(C)C=C(/C=C/c2ccc(Cl)cc2Cl)N1 | – | inconclusive: 25.9 µM [falling, single point]
40 | O=C(Nc1ccccc1)c1cc2ccc3ccccc3c2s1 | inconclusive: 169% | –
41 | CCC1Oc2ccc(C)cc2N(CC(=O)NCc2ccc(F)cc2)C1=O (stereo not given) | inactive | –
42 | CCc1ccc(N(CC(=O)NCc2ccco2)C(=O)CCC(=O)Nc2ccccn2)cc1 | – | inconclusive: 2.82 µM [falling, partial curve, poor fit]
43 | Cc1ccc(OCC(=O)N2CCOCC2)cc1C | inactive | –
44 | Cc1ccc(N2C(=O)CC(NNC(=O)Cc3ccc(F)cc3)C2=O)cc1Cl (stereo not given) | inactive | –

Row | SMILES | activity change, negative = inhibition | Potency
45 | CC(Oc1ccc(Br)cc1)C(=O)Nc1nc(-c2ccccn2)cs1 (stereo not given) | – | inconclusive: 12.6 µM [falling, partial curve, poor fit]
46 | O=C(CCC(=O)OCc1cccc(C(=O)Oc2ccccc2)c1)Nc1cccc2ccccc12 | inconclusive: 0.276% | –
47 | Cc1ccc(NC(=O)C(c2ccccc2)N2CCN(C(=O)c3ccco3)CC2)cc1Cl (stereo not given) | inconclusive: 5.8% | –
48 | Cc1ccc(C2(C(F)(F)F)NC(=O)N3CCN=C3S2)cc1 (stereo not given) | inconclusive: 8.37% | –
49 | Cc1ccc(NC(=S)NCCc2ccccc2)nc1 | inconclusive: 3.04% | –
50 | O=C(O)CCCCCN=C1CCc2ccccc2N1 | – | inconclusive: 35.5 µM [falling, single point]
51 | COc1cccc(/C=C2\CCC(C3CCCC3)C2=O)c1 (stereo not given) | inconclusive: 10.1% | –
52 | O=S(=O)(c1cccc2cccnc12)n1cnc2ccccc21 | inconclusive: -3.37% | –
53 | CCCCC1(CCCC)NC(=S)N(Nc2ccc(C)cc2)C1=O | inconclusive: -2.29% | –
54 | c1ccc2c(c1)Nc1cc3ccccc3cc1S2 | inactive | –
55 | O=C(CNC(=O)c1cccs1)NCC(=O)OCc1ccc(Cl)cc1 | inconclusive: 16.4% | –
56 | Cc1ccc(/C=C/C(=O)NCCCN2CCN(CCCNC(=O)/C=C/c3ccc(C)o3)CC2)o1 | inconclusive: 3.5% | –
57 | O=C(N/N=C/c1cc(O)ccc1[N+](=O)[O-])c1ccc2c(c1)OCCO2 | – | inconclusive: 31.6 µM [rising, partial curve]
58 | CN(C)CCCN(C(=O)COc1ccc(Cl)cc1)c1nc2cc3c(cc2s1)OCO3 | inactive | –
59 | CN1CCN(S(=O)(=O)c2ccc(Br)c3ccccc23)CC1 | inactive | –
60 | Nn1c(=O)[nH]c2c([nH]c3ccccc32)c1=O | inconclusive: 0.316% | –
61 | CC(C)(C)CC(C)(C)NC(=S)NC1CCN(Cc2ccccc2)CC1 | inconclusive: -3.76% | –
62 | COc1ccc(-c2nc3ccccc3[nH]2)cc1 | – | inconclusive: 20.6 µM [falling, partial curve]
63 | CC(C)[C@H]1COCCS(=O)(=O)N1Cc1ccccc1-c1ccccc1 | inactive | –
64 | COc1ccc(-n2c(C)cc(C(=O)COC(=O)c3cc(OC)c(OC)cc3NC(=O)c3cccs3)c2C)cc1 | inconclusive: 2.67% | –
65 | Cc1ccc(NC(=O)NC(=O)COc2c(F)c(F)cc(F)c2F)c(C)c1 | inactive | –
66 | CC(C)(C)C(=O)Nc1ccc(N2CCCC2)cc1 | inactive | –

Row | SMILES | activity change, negative = inhibition | Potency
67 | COc1ccccc1N(CC(=O)NC1CCCC1)C(=O)CCC(=O)Nc1cc(C)on1 | – | inconclusive: 16.4 µM [falling, single point]
68 | CCOc1cc(-c2cn(S(=O)(=O)c3cccc4nsnc34)nc2N)cc(OCC)c1OCC | – | inconclusive: 2.06 µM [falling, partial curve, poor fit]
69 | CC1CCCCN1C(=O)Cc1ccc(Cl)cc1 (stereo not given) | inconclusive: 8.95% | –
70 | CCCCOc1ccc(OCCNS(=O)(=O)N(C)C)cc1 | inconclusive: 0.866% | –
71 | CCCC1(C(=O)O)NC(c2ccccc2O)C2C(=O)N(c3cccc(Cl)c3)C(=O)C21 (stereo not given) | inconclusive: 6.22% | –
72 | Cc1ccc(NC(=O)CSc2nnc3ccccn23)cc1 | inactive | –
73 | COCC(C)N=C1NN=C(c2c[nH]c3ccccc23)CS1 (stereo not given) | inactive | –
74 | C/C(=N/OCO/N=C(/C)c1ccc(F)cc1)c1ccc(F)cc1 | inconclusive: -6.43% | –
75 | COC1=CCC2([N+](=O)[O-])CN(CCO)CC1([N+](=O)[O-])C2 (stereo not given) | inactive | –
76 | O=C(CN(c1cccc(Cl)c1)S(=O)(=O)c1ccc(Cl)cc1)NCc1ccccn1 | inactive | –
77 | COc1ccc(C(=O)NCc2ccc3c(c2)CCN3C(C)=O)cc1OC | inconclusive: 15.4% | –
78 | CC(=O)NCCn1c(C)cc2ccccc21 | inactive | –
79 | COCCCNC(=O)Cn1ccc(N)nc1=O | inconclusive: 1.49% | –
80 | COCC(C)n1c(SCC(=O)Nc2ccc3c(c2)OCCO3)nc2ccccc2c1=O (stereo not given) | inconclusive: -8.61% | –
81 | O=C(O)CCn1cc(C2CC(c3ccccc3)=NN2c2ccccc2)c(-c2ccccc2)n1 (stereo not given) | inconclusive: -0.953% | –
82 | CCNc1nc(NCC)nc(OCCOC(=O)c2ccccc2)n1 | inconclusive: -0.161% | –
83 | CC(C)CCSc1ncnc2c1oc1nc3c(cc12)COC(C)(C)C3 | inconclusive: 1.46% | –
84 | Cc1cc(-n2cnc(-c3cn[nH]c3C)n2)no1 | inconclusive: -7.09% | –
85 | O=C(CCNc1cccc(F)c1)c1cccc([N+](=O)[O-])c1 | inconclusive: 6.35% | –
